PubChem BioAssay AID248 (DTP/NCI, 2004)
The list shows only some results of the screen, not a fair sample: it is rich in T/C values a quarter to a half above the control, in often repeated tests (any T/C) and in doses without a T/C. Other doses and runs of a compound stand elsewhere. T/C gives the treated animals as a percentage of the vehicle group. Some doses have a count of surviving animals in place of a T/C: the source holds a T/C of zero for them, seemingly a mark for toxic or unscored doses. Some survivor counts are full or nearly so, which does not show that the dose was tolerated: the source hardly ever lists a survival T/C far under the control, and the zero likely stands for such cases as well. Survivors were counted at the toxicity check, usually on the fifth day, unless a day is given; later deaths do not show. Schedules are NCI's codes, read here as Q, the interval in days (D) or hours (H), X, the number of doses. Some schedules carry Z or #; the key to these is not given. Where survival is the endpoint, this PubChem deposit counts one and a half times the control or more as active, and values a quarter to a half above the control carry no call in these data; other NCI protocols may use other cut-offs. Some entries were tested several times; the results are listed from low to high. Some T/C values are followed by the survivors on the day toxicity was checked, most often the fifth; without a count, all were alive then.

Test system: L1210 leukemia ip in BDF1 mice, survival T/C
Experiment: NCI In Vivo Anticancer Drug Screen. Data for tumor model L1210 Leukemia (intraperitoneal) in B6D2F1 (BDF1) mice
Conditions: T/C endpoint: mean survival time, higher T/C = longer survival
[1] = dose: 100.0 mg/kg/injection, schedule: Q01DX009 (ip), vehicle: saline with Tween-80
[2] = dose: 200.0 mg/kg/injection, schedule: Q01DX009 (ip), vehicle: saline with Tween-80
[3] = dose: 400.0 mg/kg/injection, schedule: Q01DX009 (ip), vehicle: saline with Tween-80
[4] = dose: 400.0 mg/kg/injection, schedule: Q04DX003 (ip), vehicle: saline
[5] = dose: 100.0 mg/kg/injection, schedule: Q04DX002 (ip), vehicle: saline
[6] = dose: 200.0 mg/kg/injection, schedule: Q04DX002 (ip), vehicle: saline
[7] = dose: 400.0 mg/kg/injection, schedule: Q04DX002 (ip), vehicle: saline
[8] = dose: 50.0 mg/kg/injection, schedule: Q01DX009 (ip), vehicle: Klucel (hydroxypropylcellulose) (HPC)
[9] = dose: 200.0 mg/kg/injection, schedule: Q01DX001 (ip), vehicle: saline
[10] = dose: 400.0 mg/kg/injection, schedule: Q01DX001 (ip), vehicle: saline
[11] = dose: 300.0 mg/kg/injection, schedule: Q01DX001 (ip), vehicle: other
[12] = dose: 400.0 mg/kg/injection, schedule: Q01DX009 (ip), vehicle: Klucel (hydroxypropylcellulose) (HPC)
[13] = dose: 200.0 mg/kg/injection, schedule: Q01DX009 (ip), vehicle: Klucel (hydroxypropylcellulose) (HPC)
[14] = dose: 100.0 mg/kg/injection, schedule: Q04DX002 (ip), vehicle: saline with Tween-80

Cc1ccc([NH-])cc1.Cc1ccc([NH-])cc1.[Cl][Pt+2][Cl]
survivor count (dose: 25.0 mg/kg/injection, schedule: Q01DX009 (ip), vehicle: saline with Tween-80): 3 of 6 | survivor count [1]: 1 of 6 | survivor count [2]: 0 of 6 | survivor count [3]: 0 of 6

CCC(C)(CC)OC(N)=O
survivor count [4]: 2 of 4

NC(CCl)=NC1CCCC1
survivor count [5]: 0 of 3 | survivor count [6]: 0 of 3 | survivor count [7]: 0 of 3

Nc1ccc(S(=O)(=O)O)c2cccc(O)c12
survivor count (dose: 400.0 mg/kg/injection, schedule: Q04DX002 (ip), vehicle: carboxymethylcellulose (CMC)): 1 of 3

CC(=O)N1CCC(CC(O)Cc2ccnc3ccccc23)CC1 (configuration not stated)
survivor count [4]: 0 of 6

NNC(=O)CC(=O)NN
survivor count [4]: 6 of 6

CC(C)CC(Br)C(=O)NCC(=O)NC(Cc1ccccc1)C(=O)O (configuration not stated)
survivor count [3]: 6 of 6

COc1cccc(OC#N)c1OC
survivor count [8]: 5 of 6

CN1CCC(OC(=O)C(F)(c2ccccc2)c2ccccc2)CC1
survivor count (dose: 40.0 mg/kg/injection, schedule: Q01DX001 (ip), vehicle: saline): 3 of 6 | survivor count (dose: 80.0 mg/kg/injection, schedule: Q01DX001 (ip), vehicle: saline): 0 of 6 | survivor count (dose: 100.0 mg/kg/injection, schedule: Q01DX001 (ip), vehicle: saline): 0 of 6 | survivor count [9]: 0 of 6 | survivor count [10]: 0 of 6

Cc1ccccc1-n1c(O)c(N=Nc2ccc(Cl)cc2)c(=O)n(-c2ccccc2)c1=S
survivor count (dose: 400.0 mg/kg/injection, schedule: Q01DX001 (ip), vehicle: Klucel (hydroxypropylcellulose) (HPC)): 0 of 6

CCCCCCC[n+]1cccc(C#N)c1
survivor count (dose: 300.0 mg/kg/injection, schedule: Q01DX001 (ip), vehicle: saline): 2 of 6

COc1ccccc1CNCc1ccccc1
survivor count (dose: 150.0 mg/kg/injection, schedule: Q01DX001 (ip), vehicle: other): 0 of 6 | survivor count [11]: 0 of 6

CC(/C=N/NC1=NCCN1)=N/NC1=NCCN1
survivor count (dose: 189.0 mg/kg/injection, schedule: Q01DX Z (ip), vehicle: carboxymethylcellulose (CMC)): 2 of 6 | survivor count (dose: 252.0 mg/kg/injection, schedule: Q01DX Z (ip), vehicle: carboxymethylcellulose (CMC)): 0 of 6

CCN=C(NCC)Nc1ccc(NC(=O)Nc2ccc(NC(=O)Nc3ccc(NC(=NCC)NCC)cc3)cc2)cc1
survivor count (dose: 16.0 mg/kg/injection, schedule: Q01DX Z (ip), vehicle: water): 0 of 6 | survivor count (dose: 32.0 mg/kg/injection, schedule: Q01DX Z (ip), vehicle: water): 0 of 6

CCN(CC)CCCNC1=C(Cl)C(=O)c2ccccc2C1=O
survivor count (dose: 50.0 mg/kg/injection, schedule: Q01DX009 (ip), vehicle: saline with Tween-80): 4 of 6 | survivor count [1]: 0 of 6 | survivor count [2]: 0 of 6 | survivor count [3]: 0 of 6

O=C(Nc1ccccc1C1=NCCN1)c1ccc(C(=O)Nc2ccccc2C2=NCCN2)cc1
survivor count (dose: 60.0 mg/kg/injection, schedule: Q01DX Z (ip), vehicle: methylcellulose (MC)): 6 of 6 | survivor count (dose: 500.0 mg/kg/injection, schedule: Q01DX Z (ip), vehicle: carboxymethylcellulose (CMC)): 5 of 6

Oc1cccc2cccnc12.[Al]
survivor count (dose: 5.0 mg/kg/injection, schedule: Q01DX Z (ip), vehicle: carboxymethylcellulose (CMC)): 4 of 6

Cc1cc2nc(N)sc2cc1C
survivor count [8]: 6 of 6 | survivor count (dose: 100.0 mg/kg/injection, schedule: Q01DX009 (ip), vehicle: Klucel (hydroxypropylcellulose) (HPC)): 6 of 6 | survivor count (dose: 200.0 mg/kg/injection, schedule: Q04DX003 (ip), vehicle: Klucel (hydroxypropylcellulose) (HPC)): 6 of 6

Cc1ccc(Cl)cc1NC(=O)C(Br)C(Br)C(=O)O (configuration not stated)
survivor count [12]: 0 of 6

CCS(=O)(=O)c1ccc2nnnn2n1
survivor count (dose: 50.0 mg/kg/injection, schedule: Q04DX003 (ip), vehicle: saline): 0 of 4 | survivor count (dose: 100.0 mg/kg/injection, schedule: Q04DX003 (ip), vehicle: saline): 0 of 4 | survivor count (dose: 200.0 mg/kg/injection, schedule: Q04DX003 (ip), vehicle: saline): 1 of 4

NC(=Nc1ccc([N+](=O)[O-])cc1)c1ccc(C(N)=Nc2ccc([N+](=O)[O-])cc2)cc1
survivor count (dose: 125.0 mg/kg/injection, schedule: Q01DX015 (ip), vehicle: methylcellulose (MC)): 6 of 6 | survivor count (dose: 250.0 mg/kg/injection, schedule: Q01DX015 (ip), vehicle: methylcellulose (MC)): 3 of 6 | survivor count (dose: 500.0 mg/kg/injection, schedule: Q01DX015 (ip), vehicle: methylcellulose (MC)): 5 of 6

COC(=O)CSC#N
survivor count [5]: 0 of 3 | survivor count [6]: 0 of 3 | survivor count [7]: 0 of 3

CSc1nc(Cl)c(Cl)c(SC)n1 (tested in a mixture with another compound)
survivor count [13]: 1 of 3

CC(=O)OC(C)(C)C1CCC2(C)COC3(C)CC(=O)OC23C1 (configuration not stated)
survivor count (dose: 112.0 mg/kg/injection, schedule: Q04DX003 (ip), vehicle: saline): 0 of 4

S=C(NCc1ccc(Cl)c(Cl)c1)Nc1ccccc1
survivor count [13]: 6 of 6 | survivor count [12]: 6 of 6

Nc1nc(=O)n(C2CC(O)C(CO)O2)cc1F (configuration not stated)
T/C (dose: 67.0 mg/kg/injection, schedule: Q01DX Z (ip), vehicle: saline): 128 and 141 % of control | T/C (dose: 100.0 mg/kg/injection, schedule: Q01DX Z (ip), vehicle: saline): 125 [4 of 6 alive] and 135 % of control | T/C (dose: 150.0 mg/kg/injection, schedule: Q01DX Z (ip), vehicle: saline): 129 % of control

CCCCCCC(=O)CCCCCC/C=C/CC(O)C(O)C(N)(CO)C(=O)O (configuration not stated)
survivor count (dose: 3.13 mg/kg/injection, schedule: Q04DX002 (ip), vehicle: saline with Tween-80): 3 of 3 | survivor count (dose: 6.25 mg/kg/injection, schedule: Q04DX002 (ip), vehicle: saline with Tween-80): 1 of 3 | survivor count (dose: 12.5 mg/kg/injection, schedule: Q04DX002 (ip), vehicle: saline with Tween-80): 0 of 3

O=C(Nc1cccc(C2=NCCN2)c1)c1ccc2ccc(C(=O)Nc3cccc(C4=NCCN4)c3)cc2c1
survivor count (dose: 250.0 mg/kg/injection, schedule: Q01DX Z (ip), vehicle: water): 3 of 6 | survivor count (dose: 500.0 mg/kg/injection, schedule: Q01DX Z (ip), vehicle: water): 0 of 6

NCCSCCc1ccccc1
T/C [14]: 130 % of control | survivor count [14]: 3 of 3 | survivor count (dose: 200.0 mg/kg/injection, schedule: Q04DX002 (ip), vehicle: saline with Tween-80): 0 of 3 | survivor count (dose: 400.0 mg/kg/injection, schedule: Q04DX002 (ip), vehicle: saline with Tween-80): 0 of 3

OC1(c2ccc(F)cc2)c2ccccc2-c2ccccc21
survivor count [11]: 3 of 6

COc1cccc2c(=O)c(COC(C)=O)c(C)[nH]c12
survivor count [2]: 6 of 6 | survivor count [3]: 6 of 6

CCC(=O)C(CCN(C)C)(c1ccccc1)c1ccccc1
survivor count [9]: 0 of 6 | survivor count [10]: 0 of 6

CCC[CH2][Sn]1([CH2]CCC)[O]OC2([O]1)C1CC3CC(C1)CC2C3 (configuration not stated)
survivor count (dose: 25.0 mg/kg/injection, schedule: Q04DX002 (ip), vehicle: Klucel (hydroxypropylcellulose) (HPC)): 3 of 3 | survivor count (dose: 50.0 mg/kg/injection, schedule: Q04DX002 (ip), vehicle: Klucel (hydroxypropylcellulose) (HPC)): 3 of 3 | survivor count (dose: 100.0 mg/kg/injection, schedule: Q04DX002 (ip), vehicle: Klucel (hydroxypropylcellulose) (HPC)): 0 of 3 | survivor count (dose: 200.0 mg/kg/injection, schedule: Q04DX002 (ip), vehicle: Klucel (hydroxypropylcellulose) (HPC)): 0 of 3 | survivor count (dose: 400.0 mg/kg/injection, schedule: Q04DX002 (ip), vehicle: Klucel (hydroxypropylcellulose) (HPC)): 0 of 3
